Results: PubChem BioAssay AID493014 (National Center for Advancing Translational Sciences (NCATS), 2011)
Some of the results follow. Shown are side measurements of this screen, not its main read-out; they come without a call. Compounds called inactive in the main read-out are mostly missing here. Words in brackets tell the shape of the fitted curve; partial curves, single points and poor fits give uncertain potencies.

Assay: qHTS Assay to Find Inhibitors of Chronic Active B-Cell Receptor Signaling
Conditions: ABC-DLBCL IkBa-CBG/CBR reporter, luminescence ratio (green luciferase fused to IkBa over red control in TMD8 lymphoma cells), 4 h
Summary of the method: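 TMD8 ABC-DLBCL cells carrying doxycycline-inducible green luciferase fused to IkappaBalpha plus unfused red luciferase were exposed to compounds (up to 46 uM) for 4 hrs at 37C. Activity came from the overlap-corrected green/red luminescence ratio.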

[1] = measured here: CBR red luminescence, cell number
[2] = measured here: IkBa-CBG green luminescence

## COc1ccc(-c2cn3ccc(C)cc3n2)cc1
[1]
  AC50: 8.91 µM [falling, partial curve, poor fit]

## CC(=O)Nc1ccc(C(=O)OCc2ccc(Br)cc2)cc1
[1]
  AC50: 4.11 µM [rising, full curve]

## CCOC(=O)c1ccc(NC(=O)Cn2ncc(Cl)c(Cl)c2=O)cc1
[1]
  AC50: 7.31 µM [falling, partial curve]
[2]
  AC50: 32.6 µM [rising, partial curve, poor fit]

## CCNC(=S)NNC(=O)c1cc(-c2ccc(OC)cc2)nc2ccccc12
[1]
  AC50: 9.2 µM [falling, partial curve]

## Cc1ccc(-n2cc(C(=O)c3cc(Cl)ccc3O)cc(C#N)c2=O)cc1
[1]
  AC50: 14.6 µM [falling, partial curve, poor fit]

## CCOc1cccc(C(=O)Nc2cc(C)ccc2NC(=O)c2ccco2)c1
[1]
  AC50: 11.2 µM [falling, partial curve]

## CCC(=O)Nc1cc(=O)[nH]c2nc(-c3ccc(Cl)cc3)nn12
[1]
  AC50: 0.316 µM [rising, full curve, poor fit]

## CN(c1ccccc1)S(=O)(=O)c1cccc(NC(=O)CSc2ncc(C(F)(F)F)cc2Cl)c1
[1]
  AC50: 25.9 µM [falling, partial curve]

## COc1ccc(/C=N/NC(=O)c2ccc(NC(=O)c3cccc([N+](=O)[O-])c3)cc2)c(C(=O)O)c1OC
[1]
  AC50: 11.2 µM [falling, partial curve, poor fit]

## COc1ccc(CCN2C(=O)/C(=C\c3ccco3)SC2=S)cc1OC
[1]
  AC50: 35.5 µM [falling, single point]
[2]
  AC50: 35.5 µM [falling, single point]

## CCOC(=O)c1ccc(NC(=S)N(CCN2CCCCCC2)Cc2ccco2)cc1
[1]
  AC50: 1 µM [falling, full curve, poor fit]

## COc1ccccc1N(C(=O)c1snc(C(N)=O)c1N)C(C(=O)NC1CCCC1)c1ccco1 (centres undefined)
[1]
  AC50: 10 µM [falling, partial curve]

## CSc1nc(N)nc(SCCS(=O)(=O)c2ccc(Cl)cc2)c1C#N
[1]
  AC50: 8.2 µM [falling, partial curve, poor fit]
[2]
  AC50: 23.1 µM [rising, single point]

## N=c1c(S(=O)(=O)c2ccc(Cl)cc2)cc2c(=O)n3ccccc3nc2n1C1CCCCC1
[1]
  AC50: 11.2 µM [falling, partial curve, poor fit]

## O=C(CNC(=O)c1ccccc1)Nc1ccsc1C(=O)O
[1]
  AC50: 20 µM [falling, single point]

## COc1cc(/C=C/C(=O)OCC(=O)NCc2ccco2)cc(OC)c1OC
[1]
  AC50: 29.1 µM [rising, single point]

## CCn1nccc1C(=O)Nc1nccs1
[1]
  AC50: 2.59 µM [falling, partial curve, poor fit]

## CCCCNC(=S)N/N=C/c1cccc(OCC)c1O
[1]
  AC50: 0.355 µM [falling, full curve, poor fit]

## CCOC(=O)N1CCC(NC(=O)C2CCCN(Cc3nc(-c4cccc(C)c4)oc3C)C2)CC1 (centres undefined)
[1]
  AC50: 2.82 µM [rising, single point]

## Clc1ccc(Cc2noc(-c3cccs3)n2)cc1
[1]
  AC50: 20 µM [rising, partial curve, poor fit]

## CN(C)/C=C1\C(=O)ON=C1c1ccccc1
[1]
  AC50: 12.6 µM [falling, single point]

## Cc1nc(NCCc2ccc(F)cc2)c(C#N)c(C)c1[N+](=O)[O-]
[1]
  AC50: 20.6 µM [falling, partial curve, poor fit]

## C/C(=N\NC(=O)c1ccc(C)cc1)C1C(=O)c2ccccc2C1=O
[1]
  AC50: 10.3 µM [falling, partial curve]

## COc1cc(/C=N/NC(=O)CNc2n[nH]c(=O)[nH]c2=O)ccc1OCc1ccccc1
[1]
  AC50: 20 µM [rising, partial curve, poor fit]

## CCCN1Cc2cccc(C(=O)N3CCN(c4cc(Cl)ccc4C)CC3)c2C1=O
[1]
  AC50: 1.84 µM [falling, partial curve, poor fit]

## O=C(CN1C2CCC1CC(NC(=O)Nc1ccccc1)C2)NCc1ccco1 (centres undefined)
[1]
  AC50: 5.62 µM [rising, partial curve]

## C/C(=N\Nc1nncc2ccccc12)c1ccc(O)cc1
[1]
  AC50: 15.8 µM [falling, partial curve, poor fit]

## CCC(NC(=S)NCc1ccc(F)cc1)c1ccc(C)cc1 (centres undefined)
[1]
  AC50: 10 µM [falling, partial curve]

## COc1ccc(N2CC(NC(=O)C3CCCC3)CC2=O)cc1OC (centres undefined)
[1]
  AC50: 14.1 µM [falling, single point]

## Cc1occc1-c1nnc(SCC(=O)Nc2nccs2)n1Cc1ccco1
[1]
  AC50: 35.5 µM [falling, single point]

## O=C(COc1ccc2ccccc2c1)NCCn1ccc2ccccc21
[1]
  AC50: 7.31 µM [rising, single point]

## Fc1ccc2nc(Nc3nc4cc5c(cc4s3)OCCO5)sc2c1
[1]
  AC50: 0.731 µM [rising, full curve, poor fit]

## COC(=O)c1ccccc1NC(=O)NCc1ccccc1
[1]
  AC50: 8.91 µM [falling, partial curve, poor fit]

## CC1CCN(c2nc(-c3ccccc3O)nc3ccccc23)CC1
[1]
  AC50: 0.447 µM [falling, full curve, poor fit]

## CCOc1ccccc1C1N=C(c2ccc(OC)cc2)CC(c2ccccc2O)N1 (centres undefined)
[1]
  AC50: 2.82 µM [falling, full curve, poor fit]

## Cc1ccc(/C=N/NC(=O)c2cc(C)oc2C)o1
[1]
  AC50: 16.4 µM [falling, single point]

## Cc1nnc(NC(=O)CC(NC(=O)C(F)(F)F)c2ccccc2)s1 (centres undefined)
[1]
  AC50: 1.84 µM [falling, partial curve, poor fit]

## O=C(Cc1cnn(-c2ccccc2)c1)c1ccc(O)c(O)c1O
[1]
  AC50: 3.66 µM [rising, single point]

## O=C(C[n+]1ccc(/C=N/O)cc1)NC(=O)Nc1ccccc1
[1]
  AC50: 2.31 µM [rising, full curve, poor fit]

## COC(=O)c1sccc1NN1C(=O)c2ccccc2C1=O
[1]
  AC50: 35.5 µM [falling, partial curve, poor fit]

## CCOC(=O)c1ccc(NC(=O)Cn2nnc3ccccc32)cc1
[1]
  AC50: 5.62 µM [rising, single point]

## COc1ccc(C(=O)NCCCNC(=O)c2ccccn2)cc1Br
[1]
  AC50: 35.5 µM [rising, single point]

## Oc1ccc(NCc2ccc(OCc3ccccc3)cc2)cc1
[1]
  AC50: 6.31 µM [rising, single point]
[2]
  AC50: 12.6 µM [falling, single point]

## COc1ccc(Cl)cc1C(=O)NCc1cn(C)nc1C
[1]
  AC50: 14.1 µM [falling, single point]

## CC(=O)Oc1ccc(/C=C2\C=C(c3ccc(C)cc3)OC2=O)cc1
[1]
  AC50: 8.91 µM [falling, single point]

## CCOc1ccc(OCCC(=O)OCC(=O)Nc2cc(S(=O)(=O)N3CCOCC3)ccc2C)cc1
[1]
  AC50: 1.64 µM [falling, full curve]

## O=P(c1ccc2c(c1)OCCO2)(N1CCOCC1)N1CCOCC1
[1]
  AC50: 14.1 µM [falling, partial curve, poor fit]

## Cn1c(-c2ccc(F)cc2)cc2onc(-c3c(F)cccc3Cl)c2c1=O
[1]
  AC50: 4.11 µM [rising, partial curve, poor fit]

## COc1ccc2[nH]c3c(=O)n(Cc4ccco4)cnc3c2c1
[1]
  AC50: 4.47 µM [falling, full curve, poor fit]

## O=C(COC(=O)c1ccc(S(=O)(=O)N2CCOCC2)cc1)NCc1ccccc1
[1]
  AC50: 23.1 µM [rising, partial curve, poor fit]

## CC(C)(C)c1ccc(C(=O)NCc2nnc(SCC(=O)NC3CCCCC3)o2)cc1
[1]
  AC50: 35.5 µM [falling, single point]

## Cc1cccc2c(N)c3c(nc12)N(C)CC3
[1]
  AC50: 35.5 µM [falling, single point]

## COc1ccc(C(=O)/C=C/c2cn(CC(O)CN3CCOCC3)c3ccccc23)cc1 (centres undefined)
[1]
  AC50: 23.1 µM [falling, single point]

## CNc1ncnc2c1ncn2[C@@H]1O[C@H](CO)[C@@H](O)[C@H]1O
[1]
  AC50: 14.6 µM [rising, partial curve, poor fit]
[2]
  AC50: 20.6 µM [falling, single point]

## CCCCCc1cc(OC)cc2c1C(=O)OC(C)(C)O2
[1]
  AC50: 18.4 µM [rising, single point]

## O=C(c1cc(-c2ccc(Cl)cc2)on1)N1CCN(c2ccc(F)cc2)CC1
[1]
  AC50: 10 µM [falling, partial curve, poor fit]

## COc1ccc2c(c1)C(NC(=O)C(F)(F)F)CC2=O (centres undefined)
[1]
  AC50: 29.1 µM [rising, single point]

## COc1ccc2o/c(=N\O)c(C(=O)Nc3ccccc3OC)cc2c1
[1]
  AC50: 0.13 µM [falling, full curve]

## CC(C)Sc1nc2c(c(=O)[nH]1)C(c1cccs1)C1=C(CC(C)(C)CC1=O)N2 (centres undefined)
[1]
  AC50: 25.9 µM [falling, partial curve]

## CC(C)=CCCC1=CCC(/C=N/NC(N)=O)C(C)C1 (centres undefined)
[1]
  AC50: 23.1 µM [rising, single point]

## Cc1cn(C(=O)CN2C(=O)c3ccccc3C2=O)c(C)n1
[1]
  AC50: 0.13 µM [rising, full curve, poor fit]

## Cc1ccc(C(=O)Nc2ccsc2C(=O)O)cc1
[1]
  AC50: 5.01 µM [falling, partial curve]

## Oc1ccccc1CNc1nccs1
[1]
  AC50: 3.55 µM [falling, single point]

## CN(C)CCCNc1cc(C(C)(C)C)nc2c(-c3ccccc3)cnn12
[1]
  AC50: 35.5 µM [falling, single point]
